PubChem BioAssay AID1259424 | University of Nebraska Medical Center, 2018
The deposit covers about 14,000 reagents; below is a part drawn at random. 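Higher correlation or smaller distance means closer resemblance to KSR1 loss; control wells, including KSR1 knockdowns, recur on many plates.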 Not all columns of the deposit are shown. Not stated in the record: the time to read-out.

- Screen: 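Rank knockdowns across the genome by resemblance to the KSR1 depletion profile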 (primary screen)
- System: human HCT116 colon cancer cells
- Knock-down reagent: siRNA pool against human genes, 50 nM
- Detection: 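Six signature mRNAs by branched-DNA multiplex assay, scaled to two housekeeping genes and non-targeting median, log2; matched to mean KSR1 knockdown profile by Pearson correlation and euclidean distance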
- Direction: mean correlation with KSR1 profile: higher = expression change more like KSR1 knockdown

gene	PubChem SID	mean correlation with KSR1 profile
BPIFB2	SID364003328	0.631
TNFRSF10B	SID363994903	0.599
DLL3	SID364000278	0.481
SOCS7	SID363998970	0.575
EGF	SID363993175	-0.126
TRAF3	SID363994419	0.443
CEP162	SID363999180	-0.00624
SLC11A2	SID363991935	0.0877
PAK3	SID363993747	0.587
DNASE1L2	SID363992646	-0.484
ZC2HC1A	SID363999791	-0.121
GTPBP6	SID363998154	-0.484
EXOC4	SID364002189	-0.564
RASL10A	SID363997285	0.268
MTA3	SID364005107	-0.546
CILK1	SID363999196	0.304
CABYR	SID363998124	0.578
CENPN	SID364001087	-0.256
TNFAIP6	SID363997831	0.489
CDKL1	SID363995198	0.296
NBR2	SID363996696	0.352
C2	SID363991400	0.0122

Next part; the last 2 above are carried over.
gene	PubChem SID	mean correlation with KSR1 profile
NBR2	SID363996696	0.352
C2	SID363991400	0.0122
FOXL1	SID363996171	0.176
ATAD2	SID363998600	0.00186
TRAF5	SID363995587	0.382
LSM6	SID363997809	-0.403
ARMC1	SID364000797	0.526
ARGLU1	SID364000706	-0.289
KNG1	SID363992178	0.146
MRPL18	SID363998619	0.194
ABT1	SID363998482	-0.197
PIP5K1C	SID363998284	-0.583
IMPDH1	SID363992169	-0.351
CHRM1	SID363992033	0.788
ATP6V1B1	SID363992914	0.129
GPT2	SID364004531	0.014
SIDT1	SID364000453	-0.436
LHX6	SID363998792	0.435
NTNG1	SID364005552	0.0943
LRRC4C	SID364005171	-0.153
LRRC40	SID364000512	0.213
TUG1	SID364000628	-0.695
RIMBP3	SID364005096	0.561
PCDH15	SID364004302	0.51
TMEM14C	SID364000121	-0.573
ADAMTSL4	SID364001343	-0.426
ADAMTSL4	SID364003206	0.636
INTS3	SID364002621	-0.794
WDR4	SID364001168	-0.656
SMG5	SID363999419	-0.372
ME3	SID363997463	-0.507
AQP6	SID363992877	0.0496
VCPIP1	SID364003224	-0.0648
IL36G	SID364001442	0.276
BARX1	SID364002139	0.284
TCP11	SID364001175	0.119
C1QB	SID363991814	-0.263
PRPSAP2	SID363993925	0.159
EIF3A	SID363994817	0.0606
FMO5	SID363992723	0.266
CCNH	SID363992524	-0.52
DKK4	SID363998837	0.192
LRRN2	SID363997157	-0.0869
